We go through 1 molecule from patent US20210128609A1, “ONCOLOGY TREATMENTS USING ZINC AGENTS” (XYLONIX IP HOLDINGS PTE. LTD., priority 2018, published 2021).

Holding throughout (assay type): cell-based
Conditions in all cases: 96 h

One assay concerns A549. The assay is described as follows: CellTiter-Glo cell viability, A549. The method, then: (§1) The 50% inhibitory concentration (IC50) was determined in the cancer cell lines using CellTiter-Glo luminescent cell viability assay after incubation with different concentrations of active agents. Each cell line was treated with active Zn(II) agent, a standard chemotherapy drug as reference control, and culture medium as vehicle control. Cell Lines. All cell lines were cultured in media supplemented with 10-15% FBS, at a temperature of 37° C., 5% CO2, and 95% humidity. The reference control drug for all cell lines was cisplatin, to be used for genomic analysis. The cell lines tested, the tissue of origin are shown below in Table 1: Procedure for Determining Half Maximal Inhibition Concentration IC50 • 1. Harvested cells during the logarithmic growth period and count cell number using Count-star. • 2. Adjusted cell concentrations to 4.44×10^4 cells/mL with respective culture medium. • 3. Added 90 μL cell suspensions to two 96-well plates (plates A and B) with the final cell density of 4×10^3 cells/well. (cell concentration was adjusted according to the data base or density optimization assay.) • 4a. […]
For orientation: In ATP-based viability assays light output follows the ATP content of the culture.

A further assay has as its system SK-OV-3. The assay can be described thus: CellTiter-Glo cell viability, SK-OV-3. The method, then:
as §1

The next assay concerns MCF7. The assay can be described thus: CellTiter-Glo cell viability, MCF7. As to the method: as §1
The subject of the next assay is HeLa. The assay is described as follows: CellTiter-Glo cell viability, HeLa. The method, then: as §1

On to `N.N.[Cl][Pt][Cl]` [Cisplatin], for which the “Absolute IC50” value amounted to 0.88 µg/mL in the assay on A549, 0.54 µg/mL with SK-OV-3, 1.64 µg/mL in the assay on MCF7 and 0.05 µg/mL in the assay on HeLa.
